Assay results taken from US8389011B2, “Pharmaceutical compositions of cholesteryl ester transfer protein inhibitors” (Bend Research, Inc., priority 2000, dated 2013).
Some results were stated once for a whole list of compounds, not compound by compound. At least one structure is not confirmed: it was looked up by name or label, or the drawing left a doubt.

Assay: Solubility in water
Format: physicochemical
Conditions: aqueous solubility determined at about 22° C. unless otherwise specified
Text: The invention is useful for CETP inhibitors which have sufficiently low aqueous solubility, low bioavailability or slow rate of absorption such that it is desirable to increase their concentration in an aqueous environment of use. Therefore, anytime one finds it desirable to raise the aqueous concentration of the CETP inhibitor in a use environment, the invention will find utility.

CC1(C)Cc2nc(C3CCCC3)c([C@@H](F)c3ccc(C(F)(F)F)cc3)c(-c3ccc(F)cc3)c2[C@@H](O)C1 [Drug 9, [3S,5S]2-cyclopentyl-4-(4-fluoro-phenyl)-3-[fluoro-(4-trifluoromethyl-phenyl)-methyl]-7,7-dimethyl-5,6,7,8-tetrahydro-quinolin-5-ol]
solubility in water: less than 1 μg/mL
